# Measured values: patent publication US20230050148A1, “TGF-BETA INHIBITORS AND USE THEREOF” (SCHOLAR ROCK, INC., priority 2020, published 2023)
# The chains behind the UniProt entries cited, without tags or fusion partners. Where a name states a change or a piece, a line headed by the entry shows the natural chain unless it says otherwise.
# UniProt P04202: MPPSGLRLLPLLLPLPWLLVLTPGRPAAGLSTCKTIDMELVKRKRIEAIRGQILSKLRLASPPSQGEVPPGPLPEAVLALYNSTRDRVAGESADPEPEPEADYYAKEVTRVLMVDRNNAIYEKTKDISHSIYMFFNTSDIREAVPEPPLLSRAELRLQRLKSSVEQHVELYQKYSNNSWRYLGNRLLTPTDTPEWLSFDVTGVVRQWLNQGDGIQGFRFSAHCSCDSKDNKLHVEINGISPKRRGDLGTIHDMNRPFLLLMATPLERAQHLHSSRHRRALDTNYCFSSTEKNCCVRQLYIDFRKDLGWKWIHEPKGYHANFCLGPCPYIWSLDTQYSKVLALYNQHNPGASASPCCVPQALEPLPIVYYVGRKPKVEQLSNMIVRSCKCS
# UniProt P17246: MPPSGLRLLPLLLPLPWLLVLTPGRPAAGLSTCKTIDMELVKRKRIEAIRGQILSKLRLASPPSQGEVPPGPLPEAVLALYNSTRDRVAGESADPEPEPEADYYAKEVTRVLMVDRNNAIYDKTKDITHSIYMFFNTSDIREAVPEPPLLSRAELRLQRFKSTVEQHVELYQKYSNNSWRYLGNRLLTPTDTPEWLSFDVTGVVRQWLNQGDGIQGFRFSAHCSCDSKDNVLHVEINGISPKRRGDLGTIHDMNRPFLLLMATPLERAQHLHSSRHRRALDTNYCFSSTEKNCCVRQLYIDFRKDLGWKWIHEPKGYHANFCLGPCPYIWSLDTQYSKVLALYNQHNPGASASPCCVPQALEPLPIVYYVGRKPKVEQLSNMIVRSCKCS
# UniProt Q5BK65: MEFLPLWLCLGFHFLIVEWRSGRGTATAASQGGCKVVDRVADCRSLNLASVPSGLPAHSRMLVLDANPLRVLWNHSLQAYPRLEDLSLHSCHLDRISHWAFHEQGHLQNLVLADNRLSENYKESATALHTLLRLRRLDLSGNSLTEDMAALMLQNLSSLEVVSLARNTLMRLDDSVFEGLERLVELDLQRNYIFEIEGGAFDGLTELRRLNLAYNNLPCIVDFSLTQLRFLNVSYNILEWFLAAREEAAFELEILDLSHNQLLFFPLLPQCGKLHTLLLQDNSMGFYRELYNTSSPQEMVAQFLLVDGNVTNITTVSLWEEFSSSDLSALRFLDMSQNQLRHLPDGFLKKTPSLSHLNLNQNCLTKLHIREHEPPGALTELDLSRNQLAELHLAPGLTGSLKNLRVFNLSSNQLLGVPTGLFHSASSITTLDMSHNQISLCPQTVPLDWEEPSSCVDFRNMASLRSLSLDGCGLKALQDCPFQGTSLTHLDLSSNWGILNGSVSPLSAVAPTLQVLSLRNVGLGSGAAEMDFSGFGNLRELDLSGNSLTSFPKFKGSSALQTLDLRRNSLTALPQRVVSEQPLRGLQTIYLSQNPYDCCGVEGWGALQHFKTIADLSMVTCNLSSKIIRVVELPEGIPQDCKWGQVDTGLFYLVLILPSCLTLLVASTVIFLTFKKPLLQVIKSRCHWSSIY
# UniProt Q00918: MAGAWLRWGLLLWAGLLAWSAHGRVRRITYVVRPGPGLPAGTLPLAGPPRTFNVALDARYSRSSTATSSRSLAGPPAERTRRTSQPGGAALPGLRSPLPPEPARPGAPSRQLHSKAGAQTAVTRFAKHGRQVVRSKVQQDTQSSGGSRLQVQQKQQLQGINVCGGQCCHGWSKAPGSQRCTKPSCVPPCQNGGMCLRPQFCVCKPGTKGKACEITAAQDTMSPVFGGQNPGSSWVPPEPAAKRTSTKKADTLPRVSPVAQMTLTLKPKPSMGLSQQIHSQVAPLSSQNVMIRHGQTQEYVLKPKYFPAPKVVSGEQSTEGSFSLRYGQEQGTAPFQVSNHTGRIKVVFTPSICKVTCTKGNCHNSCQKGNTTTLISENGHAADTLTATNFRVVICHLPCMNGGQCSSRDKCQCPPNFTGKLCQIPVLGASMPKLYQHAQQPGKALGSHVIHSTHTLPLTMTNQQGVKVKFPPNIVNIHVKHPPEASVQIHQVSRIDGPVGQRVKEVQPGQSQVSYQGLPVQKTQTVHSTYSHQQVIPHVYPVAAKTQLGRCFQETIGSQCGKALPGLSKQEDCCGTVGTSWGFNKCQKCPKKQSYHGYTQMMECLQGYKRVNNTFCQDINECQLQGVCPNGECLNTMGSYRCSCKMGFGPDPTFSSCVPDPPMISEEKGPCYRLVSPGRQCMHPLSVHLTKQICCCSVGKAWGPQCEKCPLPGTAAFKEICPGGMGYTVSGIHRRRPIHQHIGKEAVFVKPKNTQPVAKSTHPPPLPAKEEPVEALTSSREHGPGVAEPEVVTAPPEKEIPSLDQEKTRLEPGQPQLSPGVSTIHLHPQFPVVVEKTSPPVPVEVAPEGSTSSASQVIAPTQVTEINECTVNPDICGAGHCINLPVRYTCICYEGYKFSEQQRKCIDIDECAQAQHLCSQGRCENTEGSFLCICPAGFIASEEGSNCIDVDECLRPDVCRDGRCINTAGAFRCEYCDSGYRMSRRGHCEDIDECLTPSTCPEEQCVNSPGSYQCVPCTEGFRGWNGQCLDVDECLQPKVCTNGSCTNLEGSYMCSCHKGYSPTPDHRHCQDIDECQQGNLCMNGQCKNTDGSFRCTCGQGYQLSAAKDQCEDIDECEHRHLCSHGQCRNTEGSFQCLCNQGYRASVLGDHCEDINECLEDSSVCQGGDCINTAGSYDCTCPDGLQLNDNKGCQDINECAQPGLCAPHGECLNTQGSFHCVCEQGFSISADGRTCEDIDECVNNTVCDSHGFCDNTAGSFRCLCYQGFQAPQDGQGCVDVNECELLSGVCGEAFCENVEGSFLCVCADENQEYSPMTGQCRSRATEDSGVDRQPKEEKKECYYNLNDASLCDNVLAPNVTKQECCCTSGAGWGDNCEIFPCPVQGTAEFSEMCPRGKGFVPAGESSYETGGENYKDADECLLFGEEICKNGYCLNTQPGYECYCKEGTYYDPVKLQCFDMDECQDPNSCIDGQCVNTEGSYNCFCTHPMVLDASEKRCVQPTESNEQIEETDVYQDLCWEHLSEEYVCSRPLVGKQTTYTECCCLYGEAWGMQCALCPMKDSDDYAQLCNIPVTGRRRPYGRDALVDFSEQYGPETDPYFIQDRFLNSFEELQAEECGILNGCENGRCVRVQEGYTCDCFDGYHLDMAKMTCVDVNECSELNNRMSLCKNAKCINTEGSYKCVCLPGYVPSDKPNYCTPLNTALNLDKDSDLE
# UniProt P01137: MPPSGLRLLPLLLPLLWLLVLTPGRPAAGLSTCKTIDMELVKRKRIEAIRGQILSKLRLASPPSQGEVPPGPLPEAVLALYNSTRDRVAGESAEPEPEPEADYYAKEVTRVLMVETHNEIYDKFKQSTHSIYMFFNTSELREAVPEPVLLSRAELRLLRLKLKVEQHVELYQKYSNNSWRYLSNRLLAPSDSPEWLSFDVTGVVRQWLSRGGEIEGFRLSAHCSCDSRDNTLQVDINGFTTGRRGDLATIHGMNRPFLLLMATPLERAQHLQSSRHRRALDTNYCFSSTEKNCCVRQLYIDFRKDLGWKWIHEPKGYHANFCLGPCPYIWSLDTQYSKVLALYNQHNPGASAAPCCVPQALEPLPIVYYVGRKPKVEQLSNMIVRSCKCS
# No constants are given. Whether binding was seen depends on the method and setting. Some results given as binding are weak or reduced against the parent protein; the word gives no strength.
# Legend:
# [1] = target: recombinant murine LTBP1-proTGFβ1 complex (mouse) (UniProt P04202); test: BLI screen of library antibodies
# [2] = target: recombinant murine LTBP3-proTGFβ1 complex (mouse) (UniProt P04202); test: BLI screen of library antibodies
# [3] = target: rat LRRC33-proTGFβ1 complex (rat) (UniProt P17246+Q5BK65); test: MSD-SET
# [4] = target: rat LTBP1-proTGFβ1 complex (rat) (UniProt P17246+Q00918); test: MSD-SET
# [5] = target: cynomolgus LRRC33-proTGFβ1 complex (cynomolgus monkey); test: MSD-SET
# [6] = target: cell-surface LRRC33-proTGFβ1 on Expi293 cells (Homo sapiens (Human)) (UniProt P01137); test: Incucyte internalization assay with pH-sensitive label, Expi293 cells
binding [1],binding [2],binding [3],binding [4],binding [5],binding [6],Binder
binds,binds,,,,,"Ab4 (antibody, V domains shown) VH: EVQLVESGGGLVQPGGSLRLSCAASGFTFSSYSMNWVRQAPGKGLEWVSYISSSSSTIYYADSVKGRFTISRDNAKNSLYLQMNSLRAEDTAVYYCARGVLDYGDMLDPWGQGTLVTVSS VL: DIQMTQSPSSLSASVGDRVTITCQASQDITNYLNWYQQKPGKAPKLLIYDASNLETGVPSRFSGSGSGTDFTFTISSLQPEDIATYYCQQADNHPPWTFGGGTKVEIK"
,,binds,binds,binds,binds,"Ab6 (antibody, V domains shown) VH: EVQLVESGGGLVQPGGSLRLSCTASGFTFSSFSMDWVRQAPGKGLEWVSYISPSADTIYYADSVKGRFTISRDNAKNTLYLQMNSLRAEDTAVYYCARGVLDYGDMLMPWGQGTLVTVSS VL: DIQMTQSPSSLSASVGDRVTITCQASQDITNYLNWYQQKPGKAPKLLIYDASNLETGVPSRFSGSGSGTDFTFTISSLQPEDIATYYCQQADNHPPWTFGGGTKVEIKR"
